{"source": "PubChem BioAssay AID1259308 – NCATS – 2017", "assay": "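Knock-downs that increase output of a recombinant reporter protein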 (primary screen)", "system": "human HEK293 embryonic kidney cells stably expressing firefly luciferase (HEK-CMV-Luc2-Hygro)", "reagents": "single siRNA against human genes, 0.8 pmol siRNA per well", "time to read-out": "72 h", "measurement": "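Luciferase light (ONE-Glo) measured on one replicate plate set and viability (CellTiter-Glo) on the other, scaled to a negative control siRNA, with robust z-scores and luciferase per cell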", "scale": "total luciferase, z-score: higher = more reporter protein produced", "call rule": "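An siRNA counts as active if its total luciferase robust z-score exceeds 3; genes with two or more such siRNAs out of three were retested with fresh siRNAs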", "meaning of the calls": "active = raised luciferase; inactive = no rise", "note": "The deposit covers about 59,000 reagents; this is a random part of them. Over the whole deposit, about 1,510 (2.6%) got an active call. 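Calls use total luciferase alone and ignore viability, so some active siRNAs may act by altering cell number.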 Entries without a mark were called inactive. The numbers tell different reagents against one gene apart. Further read-outs or replicates are left out here."}
The opening 2 records as a preview:
{"Gene": "C7orf25 (chromosome 7 open reading frame 25)", "siRNA no.": 1, "total luciferase, z-score": -1.72}
{"Gene": "C7orf25 (chromosome 7 open reading frame 25)", "siRNA no.": 2, "total luciferase, z-score": 1.17}

Results, repeating the preview:
{"Gene": "C7orf25 (chromosome 7 open reading frame 25)", "siRNA no.": 1, "total luciferase, z-score": -1.72}
{"Gene": "C7orf25 (chromosome 7 open reading frame 25)", "siRNA no.": 2, "total luciferase, z-score": 1.17}
{"Gene": "C7orf25 (chromosome 7 open reading frame 25)", "siRNA no.": 3, "total luciferase, z-score": 2.41}
{"Gene": "SEMG2 (semenogelin 2)", "siRNA no.": 1, "total luciferase, z-score": 1.74}
{"Gene": "SEMG2 (semenogelin 2)", "siRNA no.": 2, "total luciferase, z-score": 0.206}
{"Gene": "SEMG2 (semenogelin 2)", "siRNA no.": 3, "total luciferase, z-score": 0.868}
{"Gene": "CNIH1 (cornichon family member 1)", "siRNA no.": 1, "total luciferase, z-score": 0.908}
{"Gene": "CNIH1 (cornichon family member 1)", "siRNA no.": 2, "total luciferase, z-score": 0.291}
{"Gene": "CNIH1 (cornichon family member 1)", "siRNA no.": 3, "total luciferase, z-score": -1.11}
{"Gene": "JADE2 (jade family PHD finger 2)", "siRNA no.": 1, "total luciferase, z-score": 1.72}
{"Gene": "JADE2 (jade family PHD finger 2)", "siRNA no.": 2, "total luciferase, z-score": 0.784}
{"Gene": "JADE2 (jade family PHD finger 2)", "siRNA no.": 3, "total luciferase, z-score": -0.0432}
{"Gene": "UTP25 (UTP25 small subunit processome component)", "siRNA no.": 1, "total luciferase, z-score": -1.24}
{"Gene": "UTP25 (UTP25 small subunit processome component)", "siRNA no.": 2, "total luciferase, z-score": 1.11}
{"Gene": "UTP25 (UTP25 small subunit processome component)", "siRNA no.": 3, "total luciferase, z-score": -1.49}
{"Gene": "CHFR (checkpoint with forkhead and ring finger domains)", "siRNA no.": 1, "total luciferase, z-score": 0.0342}
{"Gene": "CHFR (checkpoint with forkhead and ring finger domains)", "siRNA no.": 2, "total luciferase, z-score": -0.0607}
{"Gene": "CHFR (checkpoint with forkhead and ring finger domains)", "siRNA no.": 3, "total luciferase, z-score": 2.26}
{"Gene": "ARMH3 (armadillo like helical domain containing 3)", "siRNA no.": 1, "total luciferase, z-score": -0.988}
{"Gene": "ARMH3 (armadillo like helical domain containing 3)", "siRNA no.": 2, "total luciferase, z-score": 0.19}
{"Gene": "ARMH3 (armadillo like helical domain containing 3)", "siRNA no.": 3, "total luciferase, z-score": 0.644}
